The other results are listed elsewhere or left out.

Amino acid sequences for entries named in this document (tags omitted). A change or cut given only in a name is not applied to a line headed by its entry.
UniProt Q8N635: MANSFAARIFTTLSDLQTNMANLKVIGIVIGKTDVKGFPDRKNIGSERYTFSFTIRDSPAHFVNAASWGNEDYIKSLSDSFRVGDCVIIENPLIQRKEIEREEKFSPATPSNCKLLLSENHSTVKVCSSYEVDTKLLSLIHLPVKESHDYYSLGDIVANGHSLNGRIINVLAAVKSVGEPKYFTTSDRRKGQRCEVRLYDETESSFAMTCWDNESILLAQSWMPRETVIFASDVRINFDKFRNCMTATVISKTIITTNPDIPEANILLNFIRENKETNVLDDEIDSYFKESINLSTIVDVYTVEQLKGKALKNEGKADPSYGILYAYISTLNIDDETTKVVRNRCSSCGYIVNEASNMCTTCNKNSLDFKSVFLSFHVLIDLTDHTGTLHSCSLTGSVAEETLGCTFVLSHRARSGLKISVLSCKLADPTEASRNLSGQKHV
UniProt Q9BTE3: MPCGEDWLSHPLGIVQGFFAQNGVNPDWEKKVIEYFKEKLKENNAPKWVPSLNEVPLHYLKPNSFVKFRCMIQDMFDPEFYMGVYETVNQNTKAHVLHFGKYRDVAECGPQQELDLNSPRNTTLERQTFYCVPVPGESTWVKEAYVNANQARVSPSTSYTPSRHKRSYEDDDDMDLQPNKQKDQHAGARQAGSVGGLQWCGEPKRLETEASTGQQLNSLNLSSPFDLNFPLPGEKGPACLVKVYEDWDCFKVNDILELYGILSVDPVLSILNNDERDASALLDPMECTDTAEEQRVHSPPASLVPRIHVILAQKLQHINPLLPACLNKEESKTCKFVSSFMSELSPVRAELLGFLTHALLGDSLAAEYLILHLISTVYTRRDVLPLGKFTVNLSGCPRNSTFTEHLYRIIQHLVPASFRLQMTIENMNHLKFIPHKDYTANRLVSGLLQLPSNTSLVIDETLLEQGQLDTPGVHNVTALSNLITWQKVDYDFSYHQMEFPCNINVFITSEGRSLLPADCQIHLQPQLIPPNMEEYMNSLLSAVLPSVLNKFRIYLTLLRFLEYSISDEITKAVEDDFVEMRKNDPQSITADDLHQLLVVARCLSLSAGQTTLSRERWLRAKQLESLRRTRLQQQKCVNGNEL
UniProt Q9H7H0: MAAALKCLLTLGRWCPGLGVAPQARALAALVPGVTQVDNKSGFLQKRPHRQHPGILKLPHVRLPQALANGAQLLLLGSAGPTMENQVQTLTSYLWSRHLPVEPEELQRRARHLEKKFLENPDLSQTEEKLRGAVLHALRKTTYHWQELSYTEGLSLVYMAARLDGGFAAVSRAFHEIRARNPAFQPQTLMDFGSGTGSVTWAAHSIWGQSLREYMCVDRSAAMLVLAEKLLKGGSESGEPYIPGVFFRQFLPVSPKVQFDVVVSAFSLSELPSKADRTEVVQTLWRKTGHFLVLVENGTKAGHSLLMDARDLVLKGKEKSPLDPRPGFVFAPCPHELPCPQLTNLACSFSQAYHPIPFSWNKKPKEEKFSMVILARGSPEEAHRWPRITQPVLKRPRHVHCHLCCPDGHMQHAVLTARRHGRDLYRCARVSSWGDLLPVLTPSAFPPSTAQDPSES
UniProt Q5U5Q3: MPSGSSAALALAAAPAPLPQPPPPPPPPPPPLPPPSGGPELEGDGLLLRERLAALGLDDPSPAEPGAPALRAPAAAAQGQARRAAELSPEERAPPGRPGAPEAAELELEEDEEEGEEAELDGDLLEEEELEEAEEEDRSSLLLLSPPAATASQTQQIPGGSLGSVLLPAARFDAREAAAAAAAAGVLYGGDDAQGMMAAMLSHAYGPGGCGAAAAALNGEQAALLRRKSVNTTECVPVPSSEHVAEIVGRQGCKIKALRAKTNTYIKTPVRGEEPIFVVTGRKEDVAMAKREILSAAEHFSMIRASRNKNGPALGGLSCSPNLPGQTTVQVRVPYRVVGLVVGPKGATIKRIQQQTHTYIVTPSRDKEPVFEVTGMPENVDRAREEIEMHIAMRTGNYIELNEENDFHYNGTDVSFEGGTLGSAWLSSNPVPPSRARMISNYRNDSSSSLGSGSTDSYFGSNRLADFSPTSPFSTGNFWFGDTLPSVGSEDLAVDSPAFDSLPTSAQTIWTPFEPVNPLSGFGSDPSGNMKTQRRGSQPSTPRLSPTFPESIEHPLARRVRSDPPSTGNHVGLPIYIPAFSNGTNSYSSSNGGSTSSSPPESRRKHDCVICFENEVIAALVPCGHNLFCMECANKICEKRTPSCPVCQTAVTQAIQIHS
UniProt O00255, whole entry, looked up: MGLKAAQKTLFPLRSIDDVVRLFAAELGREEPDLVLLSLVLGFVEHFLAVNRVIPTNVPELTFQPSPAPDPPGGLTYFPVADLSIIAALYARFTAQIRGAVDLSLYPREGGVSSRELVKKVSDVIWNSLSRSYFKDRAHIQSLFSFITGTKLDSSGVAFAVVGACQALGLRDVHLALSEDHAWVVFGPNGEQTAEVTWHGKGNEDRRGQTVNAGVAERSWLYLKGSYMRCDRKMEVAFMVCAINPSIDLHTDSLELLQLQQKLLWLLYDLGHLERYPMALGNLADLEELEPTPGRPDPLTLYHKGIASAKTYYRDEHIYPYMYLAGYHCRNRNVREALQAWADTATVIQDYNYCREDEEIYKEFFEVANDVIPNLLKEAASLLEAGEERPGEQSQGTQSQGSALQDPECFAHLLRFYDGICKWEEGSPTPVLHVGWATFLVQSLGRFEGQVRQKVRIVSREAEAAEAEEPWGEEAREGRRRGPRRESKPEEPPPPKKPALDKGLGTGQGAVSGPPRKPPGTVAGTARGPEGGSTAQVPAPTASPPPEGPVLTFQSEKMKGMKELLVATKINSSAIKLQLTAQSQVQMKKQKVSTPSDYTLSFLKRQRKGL
UniProt Q6NUT3: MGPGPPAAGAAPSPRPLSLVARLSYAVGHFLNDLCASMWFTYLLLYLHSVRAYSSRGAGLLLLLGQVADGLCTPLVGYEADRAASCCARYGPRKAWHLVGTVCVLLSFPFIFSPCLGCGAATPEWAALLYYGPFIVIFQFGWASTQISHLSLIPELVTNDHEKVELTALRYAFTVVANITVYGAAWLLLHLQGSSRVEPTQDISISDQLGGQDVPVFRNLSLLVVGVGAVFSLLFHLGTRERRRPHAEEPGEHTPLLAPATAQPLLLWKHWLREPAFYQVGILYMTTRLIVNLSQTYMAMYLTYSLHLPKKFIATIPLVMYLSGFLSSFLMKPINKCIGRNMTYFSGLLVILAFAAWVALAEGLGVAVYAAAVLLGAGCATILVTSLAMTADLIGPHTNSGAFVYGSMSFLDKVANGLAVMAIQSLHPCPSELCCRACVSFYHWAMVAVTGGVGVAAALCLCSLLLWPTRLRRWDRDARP
UniProt Q5SR56: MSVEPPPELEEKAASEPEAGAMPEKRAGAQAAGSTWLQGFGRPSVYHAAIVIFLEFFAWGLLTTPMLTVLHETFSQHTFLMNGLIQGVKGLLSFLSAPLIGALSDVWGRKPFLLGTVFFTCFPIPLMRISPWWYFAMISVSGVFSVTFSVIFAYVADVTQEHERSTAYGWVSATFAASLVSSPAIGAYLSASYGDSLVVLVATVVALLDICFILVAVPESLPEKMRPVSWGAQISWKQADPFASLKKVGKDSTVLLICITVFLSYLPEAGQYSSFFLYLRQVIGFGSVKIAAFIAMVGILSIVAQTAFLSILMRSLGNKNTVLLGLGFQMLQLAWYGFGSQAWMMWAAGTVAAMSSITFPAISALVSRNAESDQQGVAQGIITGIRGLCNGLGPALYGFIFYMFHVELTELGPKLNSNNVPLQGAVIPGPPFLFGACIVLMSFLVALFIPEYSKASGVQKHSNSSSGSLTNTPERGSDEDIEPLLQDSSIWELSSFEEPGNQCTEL
UniProt P42679: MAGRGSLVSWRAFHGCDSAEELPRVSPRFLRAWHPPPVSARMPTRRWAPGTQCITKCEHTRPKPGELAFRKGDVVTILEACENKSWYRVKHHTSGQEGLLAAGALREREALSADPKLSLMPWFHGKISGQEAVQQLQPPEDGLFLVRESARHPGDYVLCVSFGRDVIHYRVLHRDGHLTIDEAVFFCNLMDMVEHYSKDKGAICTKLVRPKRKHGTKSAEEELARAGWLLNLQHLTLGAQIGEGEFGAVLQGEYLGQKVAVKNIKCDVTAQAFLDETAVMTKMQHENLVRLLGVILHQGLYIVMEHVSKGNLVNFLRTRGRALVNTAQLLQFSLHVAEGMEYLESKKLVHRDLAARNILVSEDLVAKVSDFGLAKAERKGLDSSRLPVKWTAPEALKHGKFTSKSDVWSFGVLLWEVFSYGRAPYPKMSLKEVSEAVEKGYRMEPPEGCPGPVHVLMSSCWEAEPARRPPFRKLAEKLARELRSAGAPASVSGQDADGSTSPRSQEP
UniProt P50579: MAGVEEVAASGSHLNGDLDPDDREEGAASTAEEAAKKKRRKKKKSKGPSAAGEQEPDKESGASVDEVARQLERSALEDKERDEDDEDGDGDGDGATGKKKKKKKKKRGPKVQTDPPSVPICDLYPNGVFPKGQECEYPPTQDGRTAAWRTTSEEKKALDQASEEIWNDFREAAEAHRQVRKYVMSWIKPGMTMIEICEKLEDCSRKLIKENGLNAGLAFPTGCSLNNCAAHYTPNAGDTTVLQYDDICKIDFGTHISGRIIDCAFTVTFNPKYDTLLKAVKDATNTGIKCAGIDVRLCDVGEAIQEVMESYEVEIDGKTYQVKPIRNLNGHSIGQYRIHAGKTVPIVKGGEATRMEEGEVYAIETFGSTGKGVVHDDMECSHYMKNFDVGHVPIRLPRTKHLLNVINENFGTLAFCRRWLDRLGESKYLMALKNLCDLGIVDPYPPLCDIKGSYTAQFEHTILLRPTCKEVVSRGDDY
UniProt Q86XA0: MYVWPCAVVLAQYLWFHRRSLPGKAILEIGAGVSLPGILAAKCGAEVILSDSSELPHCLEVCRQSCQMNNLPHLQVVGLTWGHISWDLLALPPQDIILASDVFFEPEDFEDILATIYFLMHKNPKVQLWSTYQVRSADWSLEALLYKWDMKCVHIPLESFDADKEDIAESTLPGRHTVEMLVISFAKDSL
UniProt Q9NWA0: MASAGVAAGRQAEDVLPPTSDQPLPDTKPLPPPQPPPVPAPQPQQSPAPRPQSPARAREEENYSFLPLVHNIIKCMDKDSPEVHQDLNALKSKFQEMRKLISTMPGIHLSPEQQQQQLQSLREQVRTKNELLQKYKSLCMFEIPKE
UniProt Q6ZNC8: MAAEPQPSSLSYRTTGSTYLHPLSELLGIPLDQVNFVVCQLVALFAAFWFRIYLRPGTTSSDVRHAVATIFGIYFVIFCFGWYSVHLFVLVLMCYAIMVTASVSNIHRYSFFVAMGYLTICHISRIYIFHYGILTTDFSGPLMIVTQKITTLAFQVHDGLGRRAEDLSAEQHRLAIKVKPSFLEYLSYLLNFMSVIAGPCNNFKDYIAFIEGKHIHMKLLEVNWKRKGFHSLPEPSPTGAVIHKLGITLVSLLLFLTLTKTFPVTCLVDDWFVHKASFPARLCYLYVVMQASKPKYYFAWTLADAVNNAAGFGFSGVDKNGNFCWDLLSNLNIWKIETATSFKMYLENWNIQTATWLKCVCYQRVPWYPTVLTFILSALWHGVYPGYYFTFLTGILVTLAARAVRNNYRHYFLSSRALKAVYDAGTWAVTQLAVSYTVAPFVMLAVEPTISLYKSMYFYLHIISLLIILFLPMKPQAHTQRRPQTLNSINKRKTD
UniProt Q06413, whole entry, looked up: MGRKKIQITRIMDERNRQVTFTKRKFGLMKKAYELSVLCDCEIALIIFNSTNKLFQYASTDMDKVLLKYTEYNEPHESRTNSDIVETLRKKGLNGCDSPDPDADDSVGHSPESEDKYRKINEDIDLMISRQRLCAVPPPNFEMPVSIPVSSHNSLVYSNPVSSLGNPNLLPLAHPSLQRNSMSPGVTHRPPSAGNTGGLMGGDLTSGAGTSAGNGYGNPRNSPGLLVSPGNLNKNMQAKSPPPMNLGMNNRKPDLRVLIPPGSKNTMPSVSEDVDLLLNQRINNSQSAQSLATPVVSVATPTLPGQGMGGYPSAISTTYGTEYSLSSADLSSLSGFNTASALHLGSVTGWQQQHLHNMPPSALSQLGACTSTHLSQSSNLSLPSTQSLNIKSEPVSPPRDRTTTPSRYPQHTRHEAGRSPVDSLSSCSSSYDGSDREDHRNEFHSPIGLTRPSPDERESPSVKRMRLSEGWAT
UniProt A6NJ78: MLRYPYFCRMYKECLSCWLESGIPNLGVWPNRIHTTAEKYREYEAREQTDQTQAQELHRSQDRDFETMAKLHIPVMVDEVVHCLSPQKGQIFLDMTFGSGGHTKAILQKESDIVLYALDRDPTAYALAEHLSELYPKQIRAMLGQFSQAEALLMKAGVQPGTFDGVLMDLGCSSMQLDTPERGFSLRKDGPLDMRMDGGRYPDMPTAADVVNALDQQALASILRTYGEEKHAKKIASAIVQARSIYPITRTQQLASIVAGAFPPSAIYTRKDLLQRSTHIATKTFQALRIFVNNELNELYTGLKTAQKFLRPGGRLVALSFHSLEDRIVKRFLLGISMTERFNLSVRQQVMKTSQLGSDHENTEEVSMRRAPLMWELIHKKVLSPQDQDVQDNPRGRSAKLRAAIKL

Compound in the assay: COc1cc2ncnc(Nc3ccc(F)c(Cl)c3)c2cc1OCCCN1CCOCC1 [gefitinib]
Description: log2 fold change, soluble protein after heating vs DMSO (PISA); higher = thermal stabilisation; K562 lysate, 10 uM; active = over 0.2 and 3.5 SD of the protein, either way, in both replicates (recomputed). The method in brief:
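A 30 min treatment with 10 μM compound was applied to crude K562 extract at 1 mg/mL protein in PBS pH 7.4 with 1 mM MgCl2. Heating for 3 min spanned 48°C-58°C, after which aliquots were pooled, adjusted to 0.5% NP-40 at 4°C and spun at 21,000xg for 90 min. TMTpro 16plex LC-MS/MS of the supernatant, with channel sums equalised, gave values recorded as log-two fold change in thermal stability against solvent controls, from duplicates.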
MEIOB isoform 2 (UniProt Q8N635): the log2 fold change is inactive: 0.095.

As for MCMBP isoform 2 (UniProt Q9BTE3), the log2 fold change is inactive: -0.082.

As to METTL17 isoform 3 (UniProt Q9H7H0), the log2 fold change is inactive: 0.214.

Regarding MEX3C (UniProt Q5U5Q3), the log2 fold change was inactive: 0.284.

Consider MEN1 (UniProt O00255), for which the log2 fold change was inactive: 0.167.

In the case of MFSD12 isoform 3 (UniProt Q6NUT3), the log2 fold change is inactive: -0.031.

In the case of MFSD14B (UniProt Q5SR56), the log2 fold change was inactive: -0.269.

For the target MATK isoform 2 (UniProt P42679), the log2 fold change was inactive: 0.023.

Turning to METAP2 isoform 2 (UniProt P50579), the log2 fold change was inactive: 0.057.

For the target MBD4 (UniProt O95243), the log2 fold change was inactive: 0.032.

For MEX3A (UniProt A1L020), the log2 fold change was inactive: 0.207.

Take METTL23 (UniProt Q86XA0): the log2 fold change is inactive: -0.279.

As for MED9 (UniProt Q9NWA0), the log2 fold change is inactive: -0.15.

MED24 (UniProt F5H5K2): the log2 fold change was inactive: -0.015.

Regarding MBOAT1 (UniProt Q6ZNC8), the log2 fold change is inactive: -0.113.

As for MEF2C isoform 2 (UniProt Q06413), the log2 fold change is inactive: 0.05.

For the target METTL15 (UniProt A6NJ78), the log2 fold change was inactive: -0.14.
